Source: PubChem BioAssay AID1259405 (NCATS, 2018)
Aim: 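Mouse-designed siRNAs used to find CHO productivity engineering targets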 (primary screen). System: Chinese hamster CHO-K1 ovary cells with stable secreted eGFP expression. Reagent: single siRNA against mouse genes, 0.8 pmol siRNA per well (2 µl of 400 nM stock). Time to read-out: 3 days. Measurement: 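Per-well intracellular GFP measured by laser scanning cytometry, plus viability from ATP luminescence, each relative to plate median of non-targeting control wells, in %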. Scale: GFP, % of control: higher = more GFP per well, higher productivity; viability (ATP), % of control: higher = more viable cells (more ATP). Hit rule: 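Called active when intracellular GFP, relative to negative control, is at or above 120%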.
Shown is a random part of about 50,000 deposited reagents. Over the whole deposit, about 4,000 (8%) are marked active. 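Mouse siRNA library applied to hamster cells; one well for each siRNA.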 Reagents against one gene are numbered here.

{"Gene":"Npas2","siRNA no.":1,"GFP, % of control":83.2,"viability (ATP), % of control":108,"Outcome":"inactive"}
{"Gene":"Npas2","siRNA no.":2,"GFP, % of control":65.6,"viability (ATP), % of control":51.1,"Outcome":"inactive"}
{"Gene":"Npas2","siRNA no.":3,"GFP, % of control":61.4,"viability (ATP), % of control":87.6,"Outcome":"inactive"}
{"Gene":"Lratd2","siRNA no.":1,"GFP, % of control":69.9,"viability (ATP), % of control":81,"Outcome":"inactive"}
{"Gene":"Lratd2","siRNA no.":2,"GFP, % of control":72.5,"viability (ATP), % of control":87.1,"Outcome":"inactive"}
{"Gene":"Lratd2","siRNA no.":3,"GFP, % of control":80,"viability (ATP), % of control":72,"Outcome":"inactive"}
{"Gene":"Aox2","siRNA no.":1,"GFP, % of control":69,"viability (ATP), % of control":95.8,"Outcome":"inactive"}
{"Gene":"Aox2","siRNA no.":2,"GFP, % of control":40.6,"viability (ATP), % of control":31.7,"Outcome":"inactive"}
{"Gene":"Aox2","siRNA no.":3,"GFP, % of control":66.9,"viability (ATP), % of control":85.3,"Outcome":"inactive"}
{"Gene":"Spint2","siRNA no.":1,"GFP, % of control":81.5,"viability (ATP), % of control":107,"Outcome":"inactive"}
{"Gene":"Spint2","siRNA no.":2,"GFP, % of control":117,"viability (ATP), % of control":61.3,"Outcome":"inactive"}
{"Gene":"Spint2","siRNA no.":3,"GFP, % of control":44.9,"viability (ATP), % of control":24.2,"Outcome":"inactive"}
{"Gene":"Etfrf1","siRNA no.":1,"GFP, % of control":58.4,"viability (ATP), % of control":72,"Outcome":"inactive"}
{"Gene":"Etfrf1","siRNA no.":2,"GFP, % of control":75,"viability (ATP), % of control":80.7,"Outcome":"inactive"}
{"Gene":"Etfrf1","siRNA no.":3,"GFP, % of control":94.3,"viability (ATP), % of control":107,"Outcome":"inactive"}
{"Gene":"Pbld2","siRNA no.":1,"GFP, % of control":58.3,"viability (ATP), % of control":62,"Outcome":"inactive"}
{"Gene":"Pbld2","siRNA no.":2,"GFP, % of control":70.9,"viability (ATP), % of control":70.2,"Outcome":"inactive"}
{"Gene":"Pbld2","siRNA no.":3,"GFP, % of control":113,"viability (ATP), % of control":123,"Outcome":"inactive"}

Limited to “viability (ATP), % of control” (5 entries from above):
Etfrf1 #1: 72
Etfrf1 #2: 80.7
Etfrf1 #3: 107
Pbld2 #1: 62
Pbld2 #2: 70.2

More entries follow.
{"Gene":"Or56b2j","siRNA no.":1,"GFP, % of control":46.9,"viability (ATP), % of control":69,"Outcome":"inactive"}
{"Gene":"Or56b2j","siRNA no.":2,"GFP, % of control":88.1,"viability (ATP), % of control":75.1,"Outcome":"inactive"}
{"Gene":"Or56b2j","siRNA no.":3,"GFP, % of control":127,"viability (ATP), % of control":82.5,"Outcome":"active"}
{"Gene":"Cfhr1","siRNA no.":1,"GFP, % of control":58,"viability (ATP), % of control":78.4,"Outcome":"inactive"}
{"Gene":"Cfhr1","siRNA no.":2,"GFP, % of control":112,"viability (ATP), % of control":84.5,"Outcome":"inactive"}
{"Gene":"Cfhr1","siRNA no.":3,"GFP, % of control":59.8,"viability (ATP), % of control":44.6,"Outcome":"inactive"}
{"Gene":"Or5k1b","siRNA no.":1,"GFP, % of control":95.7,"viability (ATP), % of control":93.5,"Outcome":"inactive"}
{"Gene":"Or5k1b","siRNA no.":2,"GFP, % of control":84.9,"viability (ATP), % of control":79.2,"Outcome":"inactive"}
{"Gene":"Or5k1b","siRNA no.":3,"GFP, % of control":51.4,"viability (ATP), % of control":78.5,"Outcome":"inactive"}
{"Gene":"Stfa1","siRNA no.":1,"GFP, % of control":105,"viability (ATP), % of control":107,"Outcome":"inactive"}
{"Gene":"Stfa1","siRNA no.":2,"GFP, % of control":66.8,"viability (ATP), % of control":65.7,"Outcome":"inactive"}
{"Gene":"Stfa1","siRNA no.":3,"GFP, % of control":114,"viability (ATP), % of control":83.6,"Outcome":"inactive"}
{"Gene":"Cenpa","siRNA no.":1,"GFP, % of control":70.9,"viability (ATP), % of control":86.6,"Outcome":"inactive"}
{"Gene":"Cenpa","siRNA no.":2,"GFP, % of control":63.8,"viability (ATP), % of control":78.9,"Outcome":"inactive"}
{"Gene":"Cenpa","siRNA no.":3,"GFP, % of control":55.4,"viability (ATP), % of control":49.9,"Outcome":"inactive"}
{"Gene":"Rgl2","siRNA no.":1,"GFP, % of control":127,"viability (ATP), % of control":97.5,"Outcome":"active"}
{"Gene":"Rgl2","siRNA no.":2,"GFP, % of control":115,"viability (ATP), % of control":103,"Outcome":"inactive"}
{"Gene":"Rgl2","siRNA no.":3,"GFP, % of control":64.1,"viability (ATP), % of control":63.9,"Outcome":"inactive"}
{"Gene":"Hspb6","siRNA no.":1,"GFP, % of control":81.1,"viability (ATP), % of control":91.7,"Outcome":"inactive"}
{"Gene":"Hspb6","siRNA no.":2,"GFP, % of control":97.2,"viability (ATP), % of control":79.6,"Outcome":"inactive"}
{"Gene":"Hspb6","siRNA no.":3,"GFP, % of control":30.7,"viability (ATP), % of control":30.6,"Outcome":"inactive"}
{"Gene":"Rpl37a","siRNA no.":1,"GFP, % of control":33.8,"viability (ATP), % of control":24,"Outcome":"inactive"}
{"Gene":"Rpl37a","siRNA no.":2,"GFP, % of control":80.8,"viability (ATP), % of control":87.1,"Outcome":"inactive"}
{"Gene":"Rpl37a","siRNA no.":3,"GFP, % of control":47.7,"viability (ATP), % of control":26.1,"Outcome":"inactive"}
